PubChem BioAssay AID1259308, NCATS, 2017
Here is an unselected part of about 59,000 deposited reagents. Over the whole deposit, about 1,510 (2.6%) were called active. 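Calls use total luciferase alone and ignore viability, so some active siRNAs may act by altering cell number.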 The numbers tell different reagents against one gene apart. Further read-outs or replicates are left out here.

Screen: 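Candidate targets for better recombinant protein yield in mammalian cells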 (primary screen)
System: human HEK293 embryonic kidney cells stably expressing firefly luciferase (HEK-CMV-Luc2-Hygro)
Reagent: single siRNA against human genes, 0.8 pmol siRNA per well
Time to read-out: 72 h
Measured: 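Luciferase light (ONE-Glo) measured on one replicate plate set and viability (CellTiter-Glo) on the other, scaled to a negative control siRNA, with robust z-scores and luciferase per cell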
Reading the numbers: total luciferase, z-score: higher = more reporter protein produced
Call rule: 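An siRNA counts as active if its total luciferase robust z-score exceeds 3; genes with two or more such siRNAs out of three were retested with fresh siRNAs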
Meaning of the calls: active = raised luciferase; inactive = no rise

gene,reagent,"total luciferase, z-score",Outcome
ZFP69,1,-0.447,inactive
ZFP69,2,0.0841,inactive
ZFP69,3,0.0768,inactive
LRIG3,1,-0.421,inactive
LRIG3,2,1.81,inactive
LRIG3,3,-0.165,inactive
CRAMP1,1,2.32,inactive
CRAMP1,2,-0.426,inactive
CRAMP1,3,-1.14,inactive
TUBGCP4,1,-0.0102,inactive
TUBGCP4,2,1.22,inactive
TUBGCP4,3,0.367,inactive
HOXA9,1,0.958,inactive
HOXA9,2,-1.08,inactive
HOXA9,3,-1.47,inactive
CLCN5,1,-0.228,inactive
CLCN5,2,3.69,active
CLCN5,3,-0.818,inactive
FAM151A,1,-1.15,inactive
FAM151A,2,-1.26,inactive
FAM151A,3,-0.403,inactive
UNC5B,1,-1.16,inactive
UNC5B,2,-0.444,inactive
UNC5B,3,-0.902,inactive
JARID2,1,0.0524,inactive
JARID2,2,0.146,inactive
JARID2,3,-0.0512,inactive
TMEM8B,1,0.267,inactive
TMEM8B,2,-2.29,inactive
TMEM8B,3,0.442,inactive
EPHB6,1,0.78,inactive
EPHB6,2,-0.864,inactive
EPHB6,3,-1.63,inactive
NOVA2,1,-0.234,inactive
NOVA2,2,-0.0928,inactive
NOVA2,3,-0.0565,inactive
NEXMIF,1,0.299,inactive
NEXMIF,2,-0.547,inactive
NEXMIF,3,0.464,inactive
C22orf46P,1,1.52,inactive
C22orf46P,2,0.707,inactive
C22orf46P,3,-0.376,inactive
ITPA,1,-0.885,inactive
ITPA,2,-0.618,inactive
ITPA,3,0.795,inactive
LINC01565,1,0.286,inactive
LINC01565,2,1.98,inactive
LINC01565,3,2.79,inactive
FRMD5,1,0.0405,inactive
FRMD5,2,-0.402,inactive
FRMD5,3,0.251,inactive
ARHGEF34P,1,-0.361,inactive
ARHGEF34P,2,-0.58,inactive
ARHGEF34P,3,1.33,inactive
RLBP1,1,0.897,inactive
RLBP1,2,0.719,inactive
RLBP1,3,-1.01,inactive
RPL21P131,1,-2.71,inactive
RPL21P131,2,-1.46,inactive
RPL21P131,3,-1.16,inactive
GLB1,1,0.339,inactive
GLB1,2,-0.391,inactive
GLB1,3,-1.31,inactive
YBX1P6,1,-0.783,inactive
YBX1P6,2,0.372,inactive
YBX1P6,3,2.41,inactive
MRPL35,1,-0.414,inactive
MRPL35,2,-0.604,inactive
MRPL35,3,-2.77,inactive
DDI2,1,0.591,inactive
DDI2,2,-0.0143,inactive
DDI2,3,-0.916,inactive
DDI2,4,1.85,inactive
DDI2,5,2.33,inactive
DDI2,6,-1.7,inactive
